The chains are these.
B1: Suppressor of Hairy Wing (protein, UniProt P08970 1-941)
chain: MSASKEGKEKKGKLLGVENISPPKDKRPATRMKLLNDVGAGEDSEASTTTTTSRTPSNKQEKRGSVAGSRIKILNEEILGTPKTEKRGATKSTAPAASTVKILNEKKTPSATVTAVETTKIKTSPSKRKKMEHYVLQAVKSENTKADTTVTVVTEEDDTIDFILADDEEVVPGRIENNNGQEIVVTEDDEDLGEDGDEDGEDSSGKGNSSQTKIKEIVEHVCGKCYKTFRRVQSLKKHLEFCRYDSGYHLRKADMLKNLEKIEKDAVVMEKKDICFCCSESYDTFHLGHINCPDCPKSFKTQTSYERHIFITHSEFSDFPCSICNANLRSEALLALHEEQHKSRGKPYACKICGKDFTRSYHLKRHQKYSSCSSNETDTMSCKVCDRVFYRLDNLRSHLKQHLGTQVVKKPEYMCHTCKNCFYSLSTLNIHIRTHTGEKPFDCDLCDKKFSALVALKKHRRYHTGEKPYSCTVCNQAFAVKEVLNRHMKRHTGERPHKCDECGKSFIQATQLRTHSKTHIRPFPCEQCDEKFKTEKQLERHVKTHSRTKRPVFSCAECKRNFRTPALLKEHMDEGKHSPKQQRSSMRSAVKIMERTDCAICDKNFDSSDTLRRHIRTVHECDPDDIFGVEPHPSKRAKKDIESEEVVPVALNTSAGSLISSQTDGNGVVVREFLVDEGDGAAQTITLENETYTILPLDGAIEGEQLTDEAGVKPEAKKEEAQVSPVVKKEQRKSLAASLAAAIADNLEESCSEDDFSGEILTEEDIKLKENVGKLIDMLVDPPILKKYGWPNAPEETVLCKVIENCGHDLTKGGENYAELDYGSRMREYCKLLFTVVIHNDSIKSLLNNFPIDDVIEYVLGDEDQDEGGLDKDNESHSGDEEAVSVTGETKTNEIREKPEKKEVSAKSEKKEIVGKAVDKDNSEEVVRENKKKPVGEQEKA
B2: CTCF (protein, UniProt Q9VS55 1-818)
chain: MPRRTKKDEDPEDLQTFLNNFHKEIEGNSDEKVVNTILEAISAEAIDLDENGAEAGGSKPMEEAEADLDHAEEAEEEEEDDEDKYFIDDEGNCYIKTTPKKQKELQKKLKQAAAKPGKATRSVVSTATNKSINLRPAKSTPKATTSKPPPEPKAISVRPARAAAAKAKQSAMPPPPALVVKVPAPRGRPRKNPVIPKPEPMDLERELEELVDEPDISSMVTELSDYTVDEAAVEAATATLTPNEAEVYEFEDNATTEDENADKKDVDFVLSNKEVKLKTASSTSQNSNASGHKYSCPHCPYTASKKFLITRHSRSHDVEPSFKCSICERSFRSNVGLQNHINTHMGNKPHKCKLCESAFTTSGELVRHTRYKHTKEKPHKCTECTYASVELTKLRRHMTCHTGERPYQCPHCTYASQDMFKLKRHMVIHTGEKKYQCDICKSRFTQSNSLKAHKLIHSVVDKPVFQCNYCPTTCGRKADLRVHIKHMHTSDVPMTCRRCGQQLPDRYQYKLHVKSHEGEKCYSCKLCSYASVTQRHLASHMLIHLDEKPFHCDQCPQAFRQRQLLRRHMNLVHNEEYQPPEPREKLHKCPSCPREFTHKGNLMRHMETHDDSANAREKRRRLKLGRNVRLQKDGTVITLIKDQYVDMDRDQEENEEDDNPESYDLAEIEPENSEAEDADDDVETIVSDPIRQRIKPAPIIINKQARLAASEKQPMIINQRLRSQRGTKTFHIKEEPDNSDFTVEWQGDDGEVMVVELVNGDEEVLVKHEPSANSKISAKNCFGFEDDDDYEEYGDGENEVDGASQEFLQLMDMIEQDS
B3: Trithorax-like protein (Trl)/GAF (protein, UniProt Q08605 1-582)
chain: MSLPMNSLYSLTWGDYGTSLVSAIQLLRCHGDLVDCTLAAGGRSFPAHKIVLCAASPFLLDLLKNTPCKHPVVMLAGVNANDLEALLEFVYRGEVSVDHAQLPSLLQAAQCLNIQGLAPQTVTKDDYTTHSIQLQHMIPQHHDQDQLIATIATAPQQTVHAQVVEDIHHQGQILQATTQTNAAGQQQTIVTTDAAKHDQAVIQAFLPARKRKPRVKKMSPTAPKISKVEGMDTIMGTPTSSHGSGSVQQVLGENGAEGQLLSSTPIIKSEGQKVETIVTMDPNNMIPVTSANAATGEITPAQGATGSSGGNTSGVLSTPKAKRAKHPPGTEKPRSRSQSEQPATCPICYAVIRQSRNLRRHLELRHFAKPGVKKEKKTTSGKKSSSGSSGSGSGALSSSGSVPQVQTVQSLHTLQGVQVKKDPDAQQQQQQQQQQQQQQQQQAMTVSGATGGQVQQQVQQVQQQVQQQQQQQQQQQQQLQHHQIIDSSGNITTATTSAQAAAAAQQQAAGQQQQLVAQSDGSESGAPLSIAQVQTLQGHQIIGNLNQVNITDFQQQQPQQQQQQQQQQQQQQQQQQQTQQTL
B4: Nup98 (endogenous) (protein, UniProt Q9VCH5 1-1028)
chain: MFGGAKPSFGATPAATSFGGFSGTTTTTPFGQSAFGKPAAPAFGNTSTFAAQPAQQSLFGAAATPAQPAGGLFGANTSTGFGSTATAQPTAFGAFSQPQQTSNIFGSTQTAASTSLFGQSTLPAFGAAKPTMTAFGQTAAAQPTGSLFGQPAAATSTTGFGGFGTSAPTTTNVFGSGTASAFAQPQATAVGASGVNTGTAVAKYQPTIGTDTLMKSGQANSVNTKQHCITAMKEFEGKSLEELRLEDYMCGRKGPQAGNAPGAFGFGAQVTQPAQPASGGLFGSTAQPSTGLFGQTVTENKSMFGTTAFGQQPATNNAFGAATQQNNFLQKPFGATTTTPFAAPAADASNPFGAKPAFGQGGSLFGQAPATSAAPAFGQTNTGFGGFGTTAGATQQSTLFGATPAADPNKSAFGLGTAASAATTGFGFGAPATSTAGGGLFGNKPATSFAAPTFGATSTASTPFSNFGLNTSTAATGGGLFNSGLNKPATSGFGGFGATSAAPLNFNAGNTGGSLFGNTAKPGGGLFGGGTTTLGGTGAAPTGGLFGGGTTSFGGVGGSLGGGGFGMGTNNSLTGGIMGAQPTLGIMTPSHQPIHQQILARVTSPYGDSPIFKDLKLSSEADATRATNPAAQQAVLDLTSNQYKISTSNNPAPMKVKALGSTLNRKSLFDGLEEFDASVEGFNLKPSAKRLVIKPKVKSVEGGNPSSSIGSAPNTPQSRPKGATPNKERESFSGAIPSEPLPPAGNSPGATNGRESQDNGRRESWLHPNNLEKVRQHNIQTGMDQGSPHNSTLNELVPRKPLDTYRPSSTVRLSVSTIPENPFEDQSSTIARRETFTSQQANESVLSNRSNEAEDSAANQSRLAIEAAAAEAADDESHPTGIVLRRVGYYTIPSLDDLRSYLAEDGSCVVPNFTVGREGYGNVFFGKEMDVAGLNLDEIVHFRNKEIIIYPDDENKPPIGQGLNRDAQVTLDQVWPLDKTKHEAIKDPQRLLEMDWEGKLRRVCDKNDTRFIEYRPETGSWVFRVKHF

Chains of the proteins cited; added tags and fusions are not shown. Lines headed by an entry give the natural chain unless they say otherwise; changes in a name come on top.
UniProt Q9VVR1: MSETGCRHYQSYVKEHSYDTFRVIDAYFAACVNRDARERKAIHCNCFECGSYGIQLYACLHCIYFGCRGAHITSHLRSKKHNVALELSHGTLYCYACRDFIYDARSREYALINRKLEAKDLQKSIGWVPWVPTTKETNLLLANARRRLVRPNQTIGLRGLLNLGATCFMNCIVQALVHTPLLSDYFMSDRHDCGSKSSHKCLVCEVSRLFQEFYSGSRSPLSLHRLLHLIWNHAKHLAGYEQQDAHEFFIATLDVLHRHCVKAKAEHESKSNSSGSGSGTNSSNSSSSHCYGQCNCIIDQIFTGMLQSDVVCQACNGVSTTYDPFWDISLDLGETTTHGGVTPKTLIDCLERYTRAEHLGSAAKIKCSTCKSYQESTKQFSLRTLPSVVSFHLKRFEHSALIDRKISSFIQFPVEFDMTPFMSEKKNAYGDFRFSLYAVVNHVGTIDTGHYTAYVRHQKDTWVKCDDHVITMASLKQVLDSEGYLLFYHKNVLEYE

No constants are given. Whether binding was seen depends on the method and setting. In cells and extracts the contact can be indirect. A yes stands for co-enrichment or nearness to the bait. Other partners may have been found. A no says only that the protein was not detected with the bait.

This experiment concerns the target Non-stop-2xFLAG-2xHA (D. melanogaster) (UniProt Q9VVR1). Description: affinity purification with mass spectrometry; Non-stop-2xFLAG-2xHA from stably transfected S2 cells, sequential capture by FLAG then HA, complexes resolved by gel filtration, three fractions of each peak of deubiquitinase activity combined and analysed by MudPIT (Group 1 about 1.8 MDa, Group 2 about 670 kDa, third peak about 75 kDa). (In general: Size exclusion chromatography separates by hydrodynamic size, large species first.)
As to B1, the binding result is “no binding”.
In the case of B2, the binding entry is listed as “no binding”.
In the case of B3 it was “no binding”.
In the case of B4 it was “binds”.

The values are drawn from paper PMC7936876.
